Values joined by “and” are separate entries in the source; they are usually repeats but may differ in a detail not shown here. Equal entries are not always repeated. The list shows a part of the results. Single wells; the ratio to wells without odorant was worked out here, and repeats agree poorly.
Legend:
Assay in all cases: odorant receptor activation (CRE luciferase / Renilla) (fold of no-odor wells); higher = more activation
Conditions in all cases: 100 µM
[1] = test system: OR6J1 R121H/T124A/R226H/P250S/L274S/V279L clone 1714
OR6K2 clone 1041 = test system: OR6K2 clone 1041
[2] = test system: OR6K3 P228S/P248L clone 1045
OR6K3 clone 1485 = test system: OR6K3 clone 1485
OR6K6 clone 1348 = test system: OR6K6 clone 1348
OR6K6 clone 1392 = test system: OR6K6 clone 1392
OR6M1 clone 1182 = test system: OR6M1 clone 1182
[3] = test system: OR6N1 I194T/F245L/Q261R/R293H clone 1038
OR6N2 clone 1027 = test system: OR6N2 clone 1027
OR6P1 clone 1034 = test system: OR6P1 clone 1034
OR6Q1 clone 1231 = test system: OR6Q1 clone 1231
[4] = test system: OR6S1 T42I/V156I/R237H clone 1271
OR6T1 clone 1188 = test system: OR6T1 clone 1188
OR6V1 clone 1730 = test system: OR6V1 clone 1730
OR6X1 clone 1239 = test system: OR6X1 clone 1239
OR6Y1 V252I clone 1025 = test system: OR6Y1 V252I clone 1025
OR7A10 clone 1104 = test system: OR7A10 clone 1104
OR7A17 clone 1300 = test system: OR7A17 clone 1300
OR7A5 clone 1469 = test system: OR7A5 clone 1469
OR7C1 clone 1299 = test system: OR7C1 clone 1299

SMILES | odorant receptor activation [1] | odorant receptor activation (OR6K2 clone 1041) | odorant receptor activation [2] | odorant receptor activation (OR6K3 clone 1485) | odorant receptor activation (OR6K6 clone 1348) | odorant receptor activation (OR6K6 clone 1392) | odorant receptor activation (OR6M1 clone 1182) | odorant receptor activation [3] | odorant receptor activation (OR6N2 clone 1027) | odorant receptor activation (OR6P1 clone 1034) | odorant receptor activation (OR6Q1 clone 1231) | odorant receptor activation [4] | odorant receptor activation (OR6T1 clone 1188) | odorant receptor activation (OR6V1 clone 1730) | odorant receptor activation (OR6X1 clone 1239) | odorant receptor activation (OR6Y1 V252I clone 1025) | odorant receptor activation (OR7A10 clone 1104) | odorant receptor activation (OR7A17 clone 1300) | odorant receptor activation (OR7A5 clone 1469) | odorant receptor activation (OR7C1 clone 1299)
C=CC(C)(O)CCC=C(C)C (stereo not given) [linalool] | 1.96 | 1.12 | 1.56 | 1.19 | 0.841 | 0.656 | 1.09 | 1.24 | 1.31 | 1.18 | 0.812 | 0.958 | 1.04 | 1.07 | 1.08 | 1.29 | 1.25 | 1.22 | 1.12 | 1.32
COc1cc(C=O)ccc1O [vanillin] | 1.03 | 0.958 | 1.13 | 1.09 | 1.03 | 1.06 | 1.12 | 0.981 | 0.838 | 0.999 | 1.2 | 1.21 | 0.791 | 0.644 | 1.17 | 0.868 | 1.38 | 1.13 | 1.1 | 1.2
CC(C)=CCCC(C)=CC=O [citral] | 1.1 | 1.29 | 1.27 | 1.01 | 0.979 | 0.212 | 1.01 | 1.08 | 1.01 | 1.26 | 1.29 | 1.1 | 0.872 | 0.925 | 0.763 | 1.31 | 1.05 | 0.86 | 1.01 | 1.32
CCCCCCCCCC=O [decyl aldehyde] | 0.929 | 1.57 | 1.17 | 1.17 | 1.38 | 1.37 | 1.14 | 1.2 | 1.24 | 1.02 | 1.38 | 1.16 | 1.5 | 0.96 | 0.801 | 1.59 | 1.12 | 1.15 | 1.11 | 1.37
CC1CCC(C(C)C)C(O)C1 (single isomer, unassigned; (-)) [(-)-menthol] | 1.15 | 2.83 | 2.49 | 3.69 | 0.585 | 0.895 | 1.16 | 3.27 | 3.6 | 2.72 | 1.04 | 0.543 | 1.3 | 1.07 | 1.04 | 3.13 | 6.21 | 0.677 | 4.18 | 0.756
CC12CCC(C1)C(C)(C)C2=O (stereo not given) [fenchone] | 0.767 | 1.31 | 1.08 | 1.39 | 1.06 | 0.867 | 0.991 | 0.91 | 0.925 | 0.899 | 1.1 | 1.05 | 1.19 | 0.616 | 1.1 | 1.07 | 0.929 | 0.969 | 1.21 | 1.16
COC(=O)c1ccccc1O [methyl salicylate] | 1.4 | 1.25 | 1.12 | 1.03 | 1.05 | 0.907 | 0.985 | 1.18 | 1.04 | 1 | 0.599 | 0.988 | 0.773 | 0.9 | 0.929 | 1.05 | 1.04 | 1.09 | 0.787 | 1.09
C=C(C)C1CC=C(C)C(=O)C1 (stereo not given) [r-carvone] | 0.573 | 1.31 | 0.978 | 1.04 | 0.709 | 0.942 | 0.737 | 0.941 | 1.11 | 0.984 | 1.11 | 0.884 | 0.941 | 0.672 | 0.821 | 1.23 | 1.08 | 0.893 | 0.927 | 0.781
CC(=O)OCC=C(C)CCC=C(C)C [geranyl acetate] | 1.28 | 1.59 | 1.8 | 1.56 and 1.52 | 0.799 and 0.771 | 1.12 | 1.16 | 1.48 | 1.83 | 1.24 | 0.879 | 1.14 and 1.34 | 0.971 | 1.09 | 1.93 | 1.71 | 1.48 | 1.91 and 1.24 | 1.25 and 1.54 | 0.902 and 1.12
CCC1(O)C2(C)CCC(C2)C1(C)C (stereo not given) [2-ethylfenchol] | 0.839 | 2.84 | 2.83 | 1.22 | 0.838 | 1.14 | 0.818 | 3.58 | 3.46 | 3.08 | 0.861 | 0.958 | 1.01 | 0.959 | 0.629 | 3.97 | 7.9 | 1.06 | 1.29 | 1.07
O=CCc1ccccc1 [phenyl acetaldehyde] | 0.926 | 1.37 | 1.56 | 1.34 | 1.07 | 1.47 | 0.862 | 1.14 | 1.11 | 1.94 | 1.28 | 1.24 | 1.15 | 1.84 | 1.65 | 1.55 | 1.62 | 1.1 | 1.27 | 1.14
CCCCCCCCOC(C)=O [octyl acetate] | 0.953 | 1.04 | 1.06 | 0.901 | 1.24 | 0.849 | 0.979 | 1.09 | 1.14 | 1.13 | 0.959 | 1.18 | 0.872 | 0.713 | 0.874 | 0.959 | 1.06 | 1.41 | 0.801 | 1.59
C=CCc1ccc(OC)c(OC)c1 [eugenol methyl ether] | 0.841 | 1.79 | 1.43 | 1.71 | 1.35 | 1.6 | 1.54 | 1.4 | 1.47 | 1.28 | 1.69 | 1.51 | 1.72 | 0.561 | 1.03 | 1.41 | 1.42 | 1.07 | 1.82 | 1.45
CC(C)CCC(=O)O [4-methylvaleric acid] | 0.789 | 1.69 | 1.21 | 0.753 | 0.942 | 1.02 | 0.736 | 1.74 | 2.87 | 1.53 | 1 | 1.04 | 1.56 | 0.825 | 0.805 | 1.75 | 4.17 | 1.23 | 1.09 | 1.16
CCCCCC(=O)O [caproic acid] | 0.704 | 1.18 | 1.12 | 0.852 | 0.958 | 0.152 | 0.926 | 0.921 | 0.63 | 1.06 | 1.11 | 0.938 | 0.943 | 0.94 | 0.673 | 0.895 | 1.1 | 0.74 | 0.721 | 0.964
C=CCc1ccc(O)c(OC)c1 [eugenol] | 0.891 | 1.31 and 1.81 | 0.933 and 1.48 | 1.37 and 1.04 and 1.43 | 1.69 and 1.05 and 1.08 | 1.33 and 1.25 | 1.78 and 1.23 | 1.3 and 1.11 | 1.72 and 1.36 | 1.83 and 1.39 | 1.44 | 0.911 and 1.27 | 1.4 and 1.54 | 1.2 | 1.08 | 0.966 and 1.48 | 1.32 and 1.3 | 1.25 and 1.11 | 2.02 and 0.933 and 1.36 | 1.73 and 1.36
CCCCCCCC=CC=O [2-decenal] | 1.23 | 6.97 | 4.08 | 1.49 | 0.839 | 0.981 | 0.873 | 19.5 | 14.7 | 25.2 | 0.865 | 1.3 | 1.41 | 1.01 | 0.963 | 10.5 | 10.9 | 1.06 | 1.95 | 1.32
c1ccc(Oc2ccccc2)cc1 [diphenyl ether] | 0.632 | 1.28 | 0.943 | 1.06 | 1.11 | 0.948 | 0.714 | 0.862 | 0.912 | 0.864 | 0.986 | 1.05 | 1.1 | 0.816 | 0.713 | 1.1 | 0.966 | 0.839 | 1.33 | 1.27
CC(=O)OC(C)(C)C1CC=C(C)CC1 (stereo not given) [terpinyl acetate] | 1.28 | 1.54 | 1.53 | 0.993 | 0.792 | 1 | 1.14 | 1.09 | 1.25 | 1.44 | 0.982 | 0.882 | 1.08 | 1.1 | 1.13 | 1.32 | 1.93 | 0.889 | 0.939 | 0.863
O=C1CCCCCCCCCCCC(=O)OCCO1 [ethylene brassylate] | 0.855 | 1.89 | 2.06 | 1.41 | 1.31 | 2.02 | 1.61 | 1.46 | 1.46 | 1.71 | 1.87 | 1.25 | 2.27 | 1.09 | 0.959 | 1.64 | 1.51 | 1.16 | 1.64 | 1.56
c1cnccn1 [pyrazine] | 0.787 | 1.11 | 0.858 | 0.76 | 0.743 | 1.2 | 0.851 | 0.787 | 0.894 | 1.07 | 0.93 | 0.76 | 0.817 | 0.739 | 0.821 | 1.06 | 1.25 | 1.06 | 0.778 | 0.995
C=CCSCC=C [diallyl sulfide] | 0.697 | 1.2 | 1.02 | 1.3 | 1.07 | 1.13 | 0.887 | 0.862 | 0.899 | 0.882 | 0.939 | 1.09 | 1.13 | 0.931 | 0.745 | 1.25 | 0.914 | 0.848 | 1.53 | 0.996
CC(=O)C(C)=O [diacetyl] | 0.818 | 1.49 | 1.14 | 1.52 | 1.24 | 1 | 0.875 | 0.849 | 1.28 | 1.09 | 1.11 | 1.32 | 1.26 | 0.875 | 0.832 | 1.43 | 0.957 | 0.981 | 1.57 | 1.12
C=CCc1ccc(OC(C)=O)c(OC)c1 [eugenol acetate] | 1.74 | 2.04 | 1.8 | 1.93 | 1.3 | 1.35 | 1.46 | 1.43 | 1.56 | 1.64 | 1.89 | 1.69 | 2.47 | 2.17 | 1.52 | 1.92 | 1.49 | 1.13 | 2.31 | 1.68
CC(=O)OC1CC2CCC1(C)C2(C)C (stereo not given) [isobornyl acetate] | 2.01 | 1.44 | 1.35 | 1.19 and 1.13 | 1.19 and 0.758 | 0.874 | 0.987 | 0.599 | 1.05 | 0.653 | 0.941 | 1.38 and 1.08 | 1.21 | 0.774 | 0.913 | 1.43 | 1.86 | 1.74 and 1.11 | 1.15 and 1.13 | 1.22 and 0.821
CC(C)C(=O)O [isobutyric acid] | 1.85 | 0.849 | 1.67 | 1.11 and 1.1 | 1.16 and 0.822 | 0.726 | 0.948 | 0.631 | 1.46 | 0.788 | 0.798 | 1 and 0.844 | 1.03 | 0.992 | 1.11 | 2.37 | 1.88 | 1.05 and 1.23 | 1.14 and 1.02 | 1.2 and 0.726
CCCCO [1-butanol] | 1.06 | 3.11 | 1.96 | 1.22 | 0.681 | 0.993 | 0.833 | 2.44 | 3.08 | 3.66 | 1.12 | 1 | 1.06 | 0.829 | 0.873 | 4.04 | 8.15 | 1.1 | 1.22 | 1.01
CC1CCC(C(C)C)C(O)C1 (single isomer, unassigned; (+)) [(+)-menthol] | 0.93 | 3.4 | 2.41 | 0.969 | 0.758 | 1.12 | 1.08 | 3.41 | 3.29 | 2.91 | 1.08 | 0.735 | 1.31 | 0.741 | 1 | 3.55 | 7.69 | 1.12 | 1.25 | 0.872

A portion from further up, as a working copy:
SMILES | odorant receptor activation [1] | odorant receptor activation (OR6K2 clone 1041) | odorant receptor activation [2] | odorant receptor activation (OR6K3 clone 1485) | odorant receptor activation (OR6K6 clone 1348) | odorant receptor activation (OR6K6 clone 1392) | odorant receptor activation (OR6M1 clone 1182) | odorant receptor activation [3] | odorant receptor activation (OR6N2 clone 1027) | odorant receptor activation (OR6P1 clone 1034) | odorant receptor activation (OR6Q1 clone 1231) | odorant receptor activation [4] | odorant receptor activation (OR6T1 clone 1188) | odorant receptor activation (OR6V1 clone 1730) | odorant receptor activation (OR6X1 clone 1239) | odorant receptor activation (OR6Y1 V252I clone 1025) | odorant receptor activation (OR7A10 clone 1104) | odorant receptor activation (OR7A17 clone 1300) | odorant receptor activation (OR7A5 clone 1469) | odorant receptor activation (OR7C1 clone 1299)
C=CCc1ccc(OC(C)=O)c(OC)c1 [eugenol acetate] | 1.74 | 2.04 | 1.8 | 1.93 | 1.3 | 1.35 | 1.46 | 1.43 | 1.56 | 1.64 | 1.89 | 1.69 | 2.47 | 2.17 | 1.52 | 1.92 | 1.49 | 1.13 | 2.31 | 1.68
CC(=O)OC1CC2CCC1(C)C2(C)C (stereo not given) [isobornyl acetate] | 2.01 | 1.44 | 1.35 | 1.19 and 1.13 | 1.19 and 0.758 | 0.874 | 0.987 | 0.599 | 1.05 | 0.653 | 0.941 | 1.38 and 1.08 | 1.21 | 0.774 | 0.913 | 1.43 | 1.86 | 1.74 and 1.11 | 1.15 and 1.13 | 1.22 and 0.821

Source: the odorant receptor screen of Mainland et al. (2015)
